Measurements: PMC12107181 (2025)
These are yes or no findings as the source states them, for the method shown. For some assays here: In cells and extracts the contact can be indirect. Some binding calls cover weakened binding; strength is not graded here. Where a sequence is shown, tags or fusion partners need not be part of it.

Tests used:
BD-COP1 (Arabidopsis) [1] = molecular target: T1, BD-COP1 (Arabidopsis) (UniProt P43254); assay: two-hybrid; Y2H, quantified read-out with SD of three independent biological replicates (Fig. 2B, E, F); BD-COP1 or its mutants with AD fusions
T1 sequence: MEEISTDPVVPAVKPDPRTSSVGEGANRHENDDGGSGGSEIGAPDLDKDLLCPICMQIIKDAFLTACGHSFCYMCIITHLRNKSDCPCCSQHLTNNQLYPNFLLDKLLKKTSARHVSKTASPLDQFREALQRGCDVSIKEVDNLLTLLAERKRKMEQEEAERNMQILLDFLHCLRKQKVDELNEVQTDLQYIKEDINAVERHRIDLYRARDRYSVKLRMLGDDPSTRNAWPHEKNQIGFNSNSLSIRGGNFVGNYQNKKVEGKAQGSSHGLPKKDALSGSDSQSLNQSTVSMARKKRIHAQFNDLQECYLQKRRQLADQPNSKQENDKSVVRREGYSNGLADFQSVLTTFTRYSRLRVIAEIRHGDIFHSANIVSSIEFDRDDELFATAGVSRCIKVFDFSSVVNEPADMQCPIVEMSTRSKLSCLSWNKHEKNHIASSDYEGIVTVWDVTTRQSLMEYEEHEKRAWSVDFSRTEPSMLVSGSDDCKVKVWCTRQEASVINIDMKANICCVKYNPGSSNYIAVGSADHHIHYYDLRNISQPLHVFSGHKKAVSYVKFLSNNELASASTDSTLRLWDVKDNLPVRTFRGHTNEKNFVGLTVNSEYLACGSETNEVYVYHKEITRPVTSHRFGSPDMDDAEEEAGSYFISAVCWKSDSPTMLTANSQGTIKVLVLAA

BD-SPA1 (Arabidopsis) [2] = molecular target: T2, BD-SPA1 (Arabidopsis) (UniProt Q9SYX2); assay: two-hybrid; directed Y2H; BD fusion as bait, AD fusion as prey; transformed yeast grown on the indicated media at decreasing OD (Fig. 1A; the Y2H panels of SI Appendix, Figs. S4 and S5D, whose read-out was not shown, are put here)
T2 sequence: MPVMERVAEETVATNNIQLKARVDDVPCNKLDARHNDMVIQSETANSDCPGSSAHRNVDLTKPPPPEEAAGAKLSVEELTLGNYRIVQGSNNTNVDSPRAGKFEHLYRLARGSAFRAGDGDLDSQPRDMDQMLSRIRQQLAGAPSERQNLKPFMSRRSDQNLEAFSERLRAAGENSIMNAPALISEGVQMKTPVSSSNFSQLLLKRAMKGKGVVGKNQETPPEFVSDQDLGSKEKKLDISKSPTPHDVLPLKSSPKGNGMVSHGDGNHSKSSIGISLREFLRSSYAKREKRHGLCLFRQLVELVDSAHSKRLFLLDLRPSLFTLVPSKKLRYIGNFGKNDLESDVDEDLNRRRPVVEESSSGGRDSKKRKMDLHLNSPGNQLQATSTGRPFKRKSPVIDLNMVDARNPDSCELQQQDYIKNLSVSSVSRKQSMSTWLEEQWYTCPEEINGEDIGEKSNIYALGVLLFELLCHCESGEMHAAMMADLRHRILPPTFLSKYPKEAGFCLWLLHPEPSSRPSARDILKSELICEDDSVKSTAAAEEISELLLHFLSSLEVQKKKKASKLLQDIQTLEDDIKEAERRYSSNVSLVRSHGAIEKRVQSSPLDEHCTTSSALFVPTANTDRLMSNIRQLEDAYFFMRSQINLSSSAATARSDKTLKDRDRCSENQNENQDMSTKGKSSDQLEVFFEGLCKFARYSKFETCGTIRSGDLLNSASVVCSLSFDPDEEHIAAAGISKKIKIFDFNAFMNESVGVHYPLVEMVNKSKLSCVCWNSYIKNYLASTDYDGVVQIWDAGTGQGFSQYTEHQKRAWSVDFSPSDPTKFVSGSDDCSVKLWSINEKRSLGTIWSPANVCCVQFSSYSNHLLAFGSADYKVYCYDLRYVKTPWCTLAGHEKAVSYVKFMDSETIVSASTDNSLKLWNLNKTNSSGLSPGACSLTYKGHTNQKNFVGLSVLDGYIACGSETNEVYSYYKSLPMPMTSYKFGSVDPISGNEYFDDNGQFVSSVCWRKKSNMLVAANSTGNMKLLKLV

BD-COP1 (Arabidopsis) [3] = molecular target: T1, BD-COP1 (Arabidopsis); assay: as above
BD-SPA1 (Arabidopsis) [4] = molecular target: T2, BD-SPA1 (Arabidopsis); assay: two-hybrid; screen of a yeast two-hybrid transcription factor library for interactors of COP1 and/or SPA1
BD-COP1 (Arabidopsis) [5] = molecular target: T1, BD-COP1 (Arabidopsis); assay: as above
BD-COP1 (Arabidopsis) [6] = molecular target: T1, BD-COP1 (Arabidopsis); assay: two-hybrid; yeast three-hybrid (Y3H); BD-COP1 as bait and AD-TCP3 as prey in the presence or absence of coexpressed, untagged SPA1 or TCP10 (Bridge); β-galactosidase activity
YFP-COP1 (Arabidopsis) = molecular target: T3, YFP-COP1 (Arabidopsis) (UniProt P43254); assay: FRET or BRET; FRET-FLIM in leek epidermal cells transfected by particle bombardment; lifetime of the donor YFP against mCherry alone as control
T3 sequence: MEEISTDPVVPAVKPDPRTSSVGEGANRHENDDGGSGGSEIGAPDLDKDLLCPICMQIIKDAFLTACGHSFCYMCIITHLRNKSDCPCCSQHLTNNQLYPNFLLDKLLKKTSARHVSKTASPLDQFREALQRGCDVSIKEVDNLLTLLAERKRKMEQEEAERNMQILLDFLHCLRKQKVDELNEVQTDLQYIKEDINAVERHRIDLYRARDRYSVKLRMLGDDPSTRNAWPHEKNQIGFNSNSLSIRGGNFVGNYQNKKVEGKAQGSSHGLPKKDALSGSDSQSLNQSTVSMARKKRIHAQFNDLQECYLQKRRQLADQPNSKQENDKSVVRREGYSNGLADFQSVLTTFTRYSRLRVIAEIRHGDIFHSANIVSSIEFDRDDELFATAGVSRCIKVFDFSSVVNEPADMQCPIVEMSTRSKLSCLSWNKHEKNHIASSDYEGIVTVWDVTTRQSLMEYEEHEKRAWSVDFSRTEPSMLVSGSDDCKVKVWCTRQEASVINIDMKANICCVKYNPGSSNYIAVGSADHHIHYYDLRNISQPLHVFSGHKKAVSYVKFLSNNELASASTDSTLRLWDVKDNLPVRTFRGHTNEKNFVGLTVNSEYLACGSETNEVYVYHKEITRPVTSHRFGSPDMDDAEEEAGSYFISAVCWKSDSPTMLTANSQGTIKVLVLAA

YFP-SPA1 (Arabidopsis) = molecular target: T4, YFP-SPA1 (Arabidopsis) (UniProt Q9SYX2); assay: as above
T4 sequence: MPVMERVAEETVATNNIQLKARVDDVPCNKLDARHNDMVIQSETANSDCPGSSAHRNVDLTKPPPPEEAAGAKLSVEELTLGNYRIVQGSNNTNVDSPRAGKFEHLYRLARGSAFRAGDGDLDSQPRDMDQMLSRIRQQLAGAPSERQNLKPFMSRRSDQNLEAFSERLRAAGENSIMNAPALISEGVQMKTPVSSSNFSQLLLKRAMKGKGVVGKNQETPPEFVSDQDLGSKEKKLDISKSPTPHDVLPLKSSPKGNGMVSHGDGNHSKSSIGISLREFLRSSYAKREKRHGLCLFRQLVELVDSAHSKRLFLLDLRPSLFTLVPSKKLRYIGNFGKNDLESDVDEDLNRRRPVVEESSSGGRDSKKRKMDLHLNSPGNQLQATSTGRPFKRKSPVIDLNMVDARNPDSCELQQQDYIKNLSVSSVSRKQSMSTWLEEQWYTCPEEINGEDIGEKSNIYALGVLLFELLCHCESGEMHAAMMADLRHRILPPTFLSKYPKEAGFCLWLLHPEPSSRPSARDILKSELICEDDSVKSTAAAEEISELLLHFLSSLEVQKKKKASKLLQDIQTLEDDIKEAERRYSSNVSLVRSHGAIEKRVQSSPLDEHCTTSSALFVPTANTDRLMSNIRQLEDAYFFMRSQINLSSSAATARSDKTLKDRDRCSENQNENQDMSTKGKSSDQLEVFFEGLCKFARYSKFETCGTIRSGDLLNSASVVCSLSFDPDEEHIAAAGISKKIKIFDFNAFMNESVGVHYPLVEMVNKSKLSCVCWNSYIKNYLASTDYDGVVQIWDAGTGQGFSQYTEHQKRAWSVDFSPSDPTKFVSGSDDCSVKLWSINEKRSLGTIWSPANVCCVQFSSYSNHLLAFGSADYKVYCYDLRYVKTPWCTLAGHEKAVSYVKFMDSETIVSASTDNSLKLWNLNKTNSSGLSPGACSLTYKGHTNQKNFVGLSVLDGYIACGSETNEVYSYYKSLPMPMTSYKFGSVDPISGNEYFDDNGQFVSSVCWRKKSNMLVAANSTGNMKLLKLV

Measured: binding

B1: AD-TCP3 (protein, UniProt Q9MAH8 1-391)
chain: MAPDNDHFLDSPSPPLLEMRHHQSATENGGGCGEIVEVQGGHIVRSTGRKDRHSKVCTAKGPRDRRVRLSAPTAIQFYDVQDRLGFDRPSKAVDWLITKAKSAIDDLAQLPPWNPADTLRQHAAAAANAKPRKTKTLISPPPPQPEETEHHRIGEEEDNESSFLPASMDSDSIADTIKSFFPVASTQQSYHHQPPSRGNTQNQDLLRLSLQSFQNGPPFPNQTEPALFSGQSNNQLAFDSSTASWEQSHQSPEFGKIQRLVSWNNVGAAESAGSTGGFVFASPSSLHPVYSQSQLLSQRGPLQSINTPMIRAWFDPHHHHHHHQQSMTTDDLHHHHPYHIPPGIHQSAIPGIAFASSGEFSGFRIPARFQGEQEEHGGDNKPSSASSDSRH
binds: BD-COP1 (Arabidopsis) [1] | BD-SPA1 (Arabidopsis) [2] | BD-COP1 (Arabidopsis) [3] | BD-SPA1 (Arabidopsis) [4] | BD-COP1 (Arabidopsis) [5] | BD-COP1 (Arabidopsis) [6]

B2: mCherry-TCP3 (protein, UniProt Q9MAH8 1-391)
chain: MAPDNDHFLDSPSPPLLEMRHHQSATENGGGCGEIVEVQGGHIVRSTGRKDRHSKVCTAKGPRDRRVRLSAPTAIQFYDVQDRLGFDRPSKAVDWLITKAKSAIDDLAQLPPWNPADTLRQHAAAAANAKPRKTKTLISPPPPQPEETEHHRIGEEEDNESSFLPASMDSDSIADTIKSFFPVASTQQSYHHQPPSRGNTQNQDLLRLSLQSFQNGPPFPNQTEPALFSGQSNNQLAFDSSTASWEQSHQSPEFGKIQRLVSWNNVGAAESAGSTGGFVFASPSSLHPVYSQSQLLSQRGPLQSINTPMIRAWFDPHHHHHHHQQSMTTDDLHHHHPYHIPPGIHQSAIPGIAFASSGEFSGFRIPARFQGEQEEHGGDNKPSSASSDSRH
binds: YFP-COP1 (Arabidopsis) | YFP-SPA1 (Arabidopsis)
